Test results: the supplement of paper PMC7661543
± gives the standard deviation of the averaged measurements. Differences between knockout arms are mostly noise.

Columns and labels:
HCC-38 = assay: relative cell number vs DMSO control (72 h) (% of DMSO); higher = less growth inhibition (more cells)
Experimental: (§1)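 QMAP-Seq: a pool of 5 breast cancer cell lines (ZR-75-1, SKBR3, HCC-38, MDA-MB-231, BT-20), each carrying 12 doxycycline-inducible Cas9 sgRNA perturbations (11 knockouts plus non-targeting sgNT), was treated with compounds for 72 h at four 10-fold doses (10 nM-10 uM or 1 nM-1 uM range). Barcodes were amplified and sequenced, and cell number was interpolated from 293T spike-in standard curves. The result is expressed as % of the median of DMSO wells. Two biological replicates.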

MDA-MB-231 = assay: as above
Experimental: as §1

COC(=O)[C@]12CCC(C)(C)C[C@H]1[C@H]1C(=O)C=C3[C@@]4(C)C=C(C#N)C(=O)C(C)(C)[C@@H]4CC[C@@]3(C)[C@]1(C)CC2 [BardoxoloneMethyl]
relative cell number
Details	HCC-38	MDA-MB-231
sgRNA knockout: sgATF3, 10 nM	95.6 ± 13	103 ± 11
sgRNA knockout: sgATF3, 100 nM	94.8 ± 6.3	106 ± 23
sgRNA knockout: sgATF3, 1000 nM	22.1 ± 2.6	12.2 ± 2.1
sgRNA knockout: sgATF3, 10000 nM	4.98 ± 0.51	7.87 ± 3.1
sgRNA knockout: sgATF4, 10 nM	97 ± 11	102 ± 10
sgRNA knockout: sgATF4, 100 nM	90.27 ± 0.4	76.9 ± 6.9
sgRNA knockout: sgATF4, 1000 nM	29.4 ± 1	14.3 ± 0.2
sgRNA knockout: sgATF4, 10000 nM	4.72 ± 0.32	7.56 ± 2.8
sgRNA knockout: sgATF6, 10 nM	96.7 ± 2.8	121 ± 11
sgRNA knockout: sgATF6, 100 nM	94.7 ± 12	93.2 ± 46
sgRNA knockout: sgATF6, 1000 nM	33.2 ± 13	11.6 ± 2
sgRNA knockout: sgATF6, 10000 nM	4.9163 ± 0.0047	4.71 ± 3.5
sgRNA knockout: sgATG7, 10 nM	98.3 ± 4.4	95.1 ± 11
sgRNA knockout: sgATG7, 100 nM	97.8 ± 4.5	90.3 ± 24
sgRNA knockout: sgATG7, 1000 nM	25.7 ± 2.5	16 ± 5.9
sgRNA knockout: sgATG7, 10000 nM	4.98 ± 0.49	5.49 ± 3.2
sgRNA knockout: sgERN1, 10 nM	102 ± 12	92.1 ± 3.2
sgRNA knockout: sgERN1, 100 nM	97.1 ± 14	85.9 ± 4
sgRNA knockout: sgERN1, 1000 nM	23.6 ± 1.3	12.2 ± 1.5
sgRNA knockout: sgERN1, 10000 nM	5.1 ± 1.9	6.47 ± 4
sgRNA knockout: sgHSF1, 10 nM	101 ± 3.6	123 ± 19
sgRNA knockout: sgHSF1, 100 nM	77.7 ± 5.8	79.1 ± 4.3
sgRNA knockout: sgHSF1, 1000 nM	22.5 ± 2.5	9.77 ± 5.2
sgRNA knockout: sgHSF1, 10000 nM	6.26 ± 1.1	4.5 ± 2.9
sgRNA knockout: sgHSF2, 10 nM	94.5 ± 11	120 ± 12
sgRNA knockout: sgHSF2, 100 nM	103 ± 7.8	87.7 ± 17
sgRNA knockout: sgHSF2, 1000 nM	24.63 ± 0.066	9.93 ± 2.3
sgRNA knockout: sgHSF2, 10000 nM	3.89 ± 0.78	6.17 ± 2.8
sgRNA knockout: sgKEAP1, 10 nM	91.9 ± 12	95.4 ± 28
sgRNA knockout: sgKEAP1, 100 nM	75.8 ± 3.2	93.5 ± 14
sgRNA knockout: sgKEAP1, 1000 nM	26.5 ± 1.6	12.7 ± 3
sgRNA knockout: sgKEAP1, 10000 nM	4.29 ± 1.2	6.14 ± 4.5
sgRNA knockout: sgNFE2L2, 10 nM	93.1 ± 3.3	91.8 ± 19
sgRNA knockout: sgNFE2L2, 100 nM	92.1 ± 6.5	75.5 ± 18
sgRNA knockout: sgNFE2L2, 1000 nM	24.4 ± 2.6	15.8 ± 2.5
sgRNA knockout: sgNFE2L2, 10000 nM	5.44 ± 0.82	4.18 ± 3.5
sgRNA knockout: sgSLC35F2, 10 nM	97.4 ± 3.8	106 ± 16
sgRNA knockout: sgSLC35F2, 100 nM	90.4 ± 15	108 ± 6.8
sgRNA knockout: sgSLC35F2, 1000 nM	27.2 ± 7.3	15.2 ± 3.3
sgRNA knockout: sgSLC35F2, 10000 nM	5.7 ± 0.41	8.56 ± 5.9
sgRNA knockout: sgXBP1, 10 nM	104 ± 14	93 ± 1.6
sgRNA knockout: sgXBP1, 100 nM	96.4 ± 2	96.4 ± 10
sgRNA knockout: sgXBP1, 1000 nM	25.6 ± 1.4	14.7 ± 1.8
sgRNA knockout: sgXBP1, 10000 nM	4.6 ± 0.77	4.61 ± 3
